Source: ChEMBL document CHEMBL3988442, “University of Dundee, Small-Polar-MMV Screening Library” (2021).

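Viability assay of Plasmodium falciparum sporozoites; the read-out is not stated. The concentration is filed as 10 mM, unlikely as a test dose, so the dose is not known. Higher reads as lower viability (inferred: compounds with an IC50 in retests scored well above the rest). Strong results were mostly tested again. Of about 34,000 compounds tested this way, about 280 (0.84%) reached 50% or more in at least one test.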

Values are the deposited “Percent Effect”, in %. The record does not define 0% and 100%; most values in the screen are far below 50% and negative numbers occur (in some assays of this library far below -100). Compounds were drawn at random from those tested, without regard to their results. Two or more numbers in one place are separate tests of the same structure; such repeats can differ widely.

structure,Percent Effect
CN(CC(=O)N1CCCCC1Cn1cccn1)Cc1ccccc1 (centres undefined),4.962
Cn1cc(CCNC(=O)c2cc3ccccc3nc2N2CCCC2)cn1,-3.259
c1cnnc(N2CCCC2CNc2ncnc3ccsc23)c1 (centres undefined),-0.2692
CN(CCc1ccccc1)c1cnn(C)c(=O)c1Br,-7.162
CN1CCc2nc(C3CCCN(S(=O)(=O)c4ccccc4)C3)ncc2C1 (centres undefined),8.919
Cl.O=C(C1CCC1)N1CCC2(CCNCC2)C1,4.79
COc1cccc(CN(Cc2ccco2)Cc2[nH]cnc2C)c1.O=C(O)CC(O)(CC(=O)O)C(=O)O,11.86
Cc1ccc2cnn(CCC(=O)NCc3c(C)nn(C)c3C)c2c1,-6.761
Cc1cc(C(=O)N2CCc3nc(C4CCCN4)ncc3C2)cs1.Cl (centres undefined),10.64
COC(=O)CNC(=O)C1(NC(=O)c2ccc3[nH]ncc3c2)CCCC1,-11.21
CC(c1cccc(F)c1)N1CCN(Cc2nccn2C)CC1 (centres undefined),11.53
CC1CN(C(=O)c2cnn(-c3ccccn3)c2C(C)C)CC(C)(C)O1 (centres undefined),2.081
Cc1nc(CN(C)C2CCN(Cc3ccc(Cl)s3)C2)no1 (centres undefined),10.74
Cc1nc(NC(=O)NC2CC(=O)N(C)C2)nn1C (centres undefined),7.338
O=C(NC1CCCN(c2ccccn2)C1)C1(c2ccccc2F)CC1 (centres undefined),7.039
COC(=O)c1sc2cccc(F)c2c1CNC(=O)C1CCCO1 (centres undefined),6.649
COc1cc(CNC2CCc3nc(C(C)C)nn3C2)cc2c1OCO2 (centres undefined),-6.601
[H][C@@]12CCN(c3ccc(C)nn3)C[C@]1(C(=O)N1CCCC1)CCO2,-6.893
CCc1nc(CN2CCN(C(=O)CCc3ccccc3)CC2)cs1,7.637
c1ccc(-c2nnc(CNC3CCCN(c4cccnn4)C3)o2)cc1 (centres undefined),6.154
Cc1oncc1C(=O)N1CCC2(CC1)CN(S(C)(=O)=O)c1ccccc12,15.85
Cc1ccc(CN[C@@H]2COC[C@H]2Cc2cc(C)no2)cc1.O=C(O)CC(O)(CC(=O)O)C(=O)O,8.116 & -12.75 & -3.678
Cn1ncc2c(=O)[nH]c(CN(Cc3cccc(F)c3)C3CC3)nc21,5.233
Cc1nc(CN2CCCN(CCCc3ccccc3)CC2)no1,7.895
COc1ccc(F)cc1C(=O)N1CCCC(CNS(C)(=O)=O)C1 (centres undefined),9.916 & 11.81 & 29.1
CC(C)(C)N1CC(C(=O)N2CC(Oc3ccc(F)cc3)C2)CC1=O (centres undefined),-9.53
Cn1cnc(S(=O)(=O)NCCCN2CCCCCC2)c1Cl,-12.48
Cc1noc(C)c1C(=O)NCCSCc1cccs1,9.562
O=C(O)C(F)(F)F.O=C(O)C(F)(F)F.O=C1CC2(CCN(Cc3cccnc3)C2)CN1c1ccc2c(c1)OCO2 (centres undefined),12.41
CNS(=O)(=O)c1cccc(CNC(=O)CCc2ccsc2)c1,0.9879
CCn1ccnc1CN1CCCN(C(=O)Cn2nc(C)cc2C)CC1,4.624
[H][C@]12CC[C@]([H])(CN(C3Cc4ccccc4C3)C1)N(Cc1nc(CC)no1)C2,-10.52
CNc1cc(CNC(=O)c2ccnc(OC)c2)nc(-c2ccncc2)n1,2.176
c1ccc(C[C@H]2CN(Cc3nccs3)CC[C@H]2OCC2CC2)cc1,-18.11
Cc1sc2c(C3CCCNC3)nc(Nc3cccc(F)c3)n2c1C.Cl (centres undefined),34.32 & -79.87 & -18.01
CC1CN(C(=O)c2sccc2Br)CCO1 (centres undefined),0.3293
CN(CCCOc1ccccc1)C(=O)CN1CCc2cncnc2C1,7.253
CN1CCN(c2cc(CNC(=O)c3ccc(=O)n(C)c3)ccn2)CC1,16.75
O=C(N1CCCC1)N1CCC(c2nccn2Cc2cscn2)CC1,1.842
Cc1noc2ncc(C(=O)N3CCCC3c3ccsc3)cc12 (centres undefined),10.4
CC(C)(NCC(=O)NC(=O)NC1CC1)c1ccc2c(c1)OCO2,0.3152
CN1C(=O)c2ccc(NC(=O)CSc3ccc4c(c3)CCC4)cc2C1=O,-13.28
CN1CCc2c(C#N)c(NCC3CCCO3)n3cnnc3c2C1.Cl (centres undefined),1.181
N#Cc1csc(CNCCOc2ncccc2Cl)c1,-18.95
OCC1CCCN1c1cc(N2CCc3ccccc3C2)ncn1 (centres undefined),3.468
Cc1ccc(S(=O)(=O)NCc2[nH]ncc2Br)cc1C,-9.878
COCCN1CCc2ccccc2NCCC1=O,1.244
Cc1ncnc(NCc2cc3n(n2)CCCN(S(C)(=O)=O)C3)c1C,6.341
COc1ccc(CNc2cnn(C)c(=O)c2Cl)cc1,4.272
Cc1nn(C)c(C)c1CC(=O)N1CCCC(n2ccnc2C)C1 (centres undefined),-1.347
N#CCCN(C(=O)CN1CCCC1c1ccsc1)c1ccccc1 (centres undefined),-5.987
CCCc1cc(NC(=O)c2cccc(N3CCCNC3=O)c2)n[nH]1,-5.438
O=C(N[C@@H]1CN(Cc2ccc3cc[nH]c3c2)C[C@H]1O)c1cnccn1,-1.172
CNc1cncc(C2CCCN2Cc2ccnc(N3CCCC3)n2)n1 (centres undefined),-10.04
Cc1ccc(-c2cc(CN3CCCC(Cn4cncn4)C3)on2)cc1 (centres undefined),-1.244
Cc1cnn(CCC(=O)N2CCN(c3nc(C)cs3)CC2)c1,13.24
Cc1ccc(N2CCCC(NCc3sccc3C)C2)nn1 (centres undefined),1.977
CCn1nc(CC(C)C)cc1C(=O)N1CCC2(CC1)[C@H](O)C[C@@H]2O,-0.355
Cc1cncc(CN2CC[C@@](O)(CNC(=O)c3c[nH]cn3)[C@H](O)C2)c1,3.107
O=C(O)C(F)(F)F.[H][C@]12CN(Cc3nccs3)C[C@@]1([H])OCCN(C(=O)c1cccn1C)C2,-8.932
COc1cc(CNCc2ccc(-n3nc(C)cc3C)nc2)cc(OC)c1,-86.1
CC(C)c1nccn1CCCNC(=O)c1ccc(-c2cccnc2)nc1,-0.355
CC(C(=O)N1CCN(c2cnccn2)CC1)n1cncn1 (centres undefined),-12.41
CSCCN1CCC(NC(=O)c2cccc(C3CCCNC3)c2)CC1 (centres undefined),0
COC1CCN(C(=O)CC2CCCC2)CC(=O)N(C)c2ccccc21 (centres undefined),-29.16
Cc1[nH]ccc1C(=O)N1CCC2(CC1)c1nc[nH]c1CCN2S(C)(=O)=O,-10.54 & -7.587
CCC(CC)c1cc(CNC(=O)N2CCCC(N(C)C)C2)on1 (centres undefined),-7.151
Cn1cc(CN2CCCC23CCN(c2nc4ccccc4s2)CC3)cn1,38.02 & 33.56
COCC1c2c(cnn2C)CCN1Cc1ccc(F)cc1.O=C(O)C(F)(F)F.O=C(O)C(F)(F)F (centres undefined),-11.95
N#Cc1ncn(CCC(=O)Nc2c(Cl)cccc2Cl)n1,5.145
Cc1ccc(C(C)NCc2c(C(C)C)nn(C)c2N2CCOCC2)o1 (centres undefined),-0.8079
Cc1ccc(CN2CC3(CCN(C(=O)c4cccnc4)C3)C2)o1.O=C(O)C(F)(F)F.O=C(O)C(F)(F)F,10.13
COc1ccc(CCN(C)C2CCCN(Cc3noc(C)n3)C2)cc1 (centres undefined),-293.6
CS(=O)(=O)NCCC(=O)N1Cc2cnc(-c3ccccc3)nc2C1,-3.7
CCn1cc(CN2CCCN(C(=O)CCc3ccncc3)CC2)cn1,8.994
CCOCc1cnc2n1CCN(C(=O)c1ccoc1C)C2C (centres undefined),12.83
Cc1ccccc1-c1cncc(C2CCN(Cc3ccccn3)CC2)n1,7.524
CC[C@H](C)Nc1ncc(-c2ccn(C3CCN(C(C)=O)CC3)n2)cn1,-4.826
Cc1ccc(CN2CCC3(CC2)C(=O)NCCN3CC2CC2)o1,-5.113
Cc1nn(C)cc1NC(=O)CN1CCN(C2CCCC2)C(=O)C1,14.18
COc1ncccc1C(=O)N1CCCC(c2cc(C)[nH]n2)C1 (centres undefined),-2.88
Cn1cnnc1C1CCCN(C(=O)c2ccc3c(c2)OCCCO3)C1 (centres undefined),10.87
COc1c(CNCc2cccc(CS(C)(=O)=O)c2)c(C)nn1C,0.32
Cc1cc(NC(=O)CN(C)C2CCCN(c3cccnn3)C2)n(C)n1 (centres undefined),-1.385
COCC(=O)N1CCC(c2cc(-c3ccc(OC)cc3)n[nH]2)C1 (centres undefined),0.2583
Cc1cc(NC(=O)NCC(C)N2CCc3ccccc32)no1 (centres undefined),0.8889
Cn1cnnc1C1CCCN(C(=O)Cc2ccc3c(c2)OCCO3)C1 (centres undefined),0.9249
CN(CC(=O)NC1CCOCC1)C1CCCN(c2cccnn2)C1 (centres undefined),10.88
CC(c1nc(C2CC2)no1)N1CCN(Cc2cccc(C#N)c2)CC1 (centres undefined),10.14
Cc1nc(CN2CCN(C(=O)c3ccc(=O)n(C)c3)CC2)cs1,-1.956
COc1cccc(C(C(=O)O)N2CCC(Cn3cccn3)CC2)c1OC (centres undefined),-22.33 & -24.07
O=C(Nc1ccc(N2CCOCC2)nc1)N1CCc2sccc2C1,-6.978 & -1.775 & -13.36
CCn1cc(CN(C)S(=O)(=O)c2cnn(CC)c2C)c(C)n1,-10.13
CCc1ncncc1C(=O)NCCN1CCC(C)CC1,-11.2
c1ccc(-c2nc(CN3CCCC3Cn3cncn3)cs2)cc1 (centres undefined),-0.5757

Once more, the final 7:

| structure | Percent Effect |
|---|---|
| `CC(c1nc(C2CC2)no1)N1CCN(Cc2cccc(C#N)c2)CC1` (centres undefined) | 10.14 |
| `Cc1nc(CN2CCN(C(=O)c3ccc(=O)n(C)c3)CC2)cs1` | -1.956 |
| `COc1cccc(C(C(=O)O)N2CCC(Cn3cccn3)CC2)c1OC` (centres undefined) | -22.33 & -24.07 |
| `O=C(Nc1ccc(N2CCOCC2)nc1)N1CCc2sccc2C1` | -6.978 & -1.775 & -13.36 |
| `CCn1cc(CN(C)S(=O)(=O)c2cnn(CC)c2C)c(C)n1` | -10.13 |
| `CCc1ncncc1C(=O)NCCN1CCC(C)CC1` | -11.2 |
| `c1ccc(-c2nc(CN3CCCC3Cn3cncn3)cs2)cc1` (centres undefined) | -0.5757 |